This passage reports binding results from publication PMC4957769.

Results are given in words; binding and its absence hold for the method and conditions named. For part of these data: Binding can be weak; no strength is given. For part of these data: Where a sequence is shown, tags or fusion partners need not be part of it.

For assay [1], the target named is T1, MBP-OsHAK1-C, C-terminal domain of OsHAK1 (683-792 aa) (rice (Oryza sativa)) (UniProt Q6VVA6).
T1 sequence: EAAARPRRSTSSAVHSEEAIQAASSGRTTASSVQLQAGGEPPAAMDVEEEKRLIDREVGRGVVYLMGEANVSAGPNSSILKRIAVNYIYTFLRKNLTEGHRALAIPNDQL
In words: pull-down; 100 ug MBP-tagged bait on amylose resin, 15 ug GST-RUPO-C or GST as prey, 20 mM Tris-HCl, 150 mM NaCl, 1 mM DTT, pH 7.5, 4 C, 3 h; blots with anti-GST and anti-MBP; both purified.

Assay [2] has as its target BD453-820*, RUPO 453-820 aa with K543R (rice (Oryza sativa)). In words: two-hybrid; direct tests of BD-RUPO constructs against C-tails of OsHAKs in yeast; growth on quadruple dropout medium.
In assay [3] the target is BD-RUPO-C, intracellular domain of RUPO without juxtamembrane region (515-845 aa) (rice (Oryza sativa)). The description is as above.
Assay [4] addresses BD453-788*, RUPO 453-788 aa with K543R (rice (Oryza sativa)). The description is as above.
In assay [5] the target is BD453-845, complete intracellular domain of RUPO (453-845 aa) (rice (Oryza sativa)). The description is as above.
Assay [6] addresses BD453-708*, RUPO 453-708 aa with K543R (rice (Oryza sativa)). The assay is described as above.
The target of assay [7] is BD453-820, truncated intracellular domain of RUPO with JM (453-820 aa) (rice (Oryza sativa)). Described as above.
The target in assay [8] is BD453-845*, intracellular domain of RUPO (453-845 aa) with K543R (rice (Oryza sativa)). Described as above.
The target in assay [9] is BD-RUPO-C, intracellular domain of RUPO without juxtamembrane region (515-845 aa) (rice (Oryza sativa)). The assay can be described thus: two-hybrid; library screen: bait BD-RUPO-C in Y2HGold mated with a prey cDNA library of germinated pollen in Y187; selection on SD/-His/-Leu/-Trp, then SD/-Ade/-His/-Leu/-Trp with x-alpha-Gal.

For the molecule “GST-RUPO-C (515-845 aa of RUPO) (rice (Oryza sativa)) (domain or fragment)”, the binding entry in assay [1] was “binds”.

B1: OsHAK1-C, 110-aa C-terminus of high-affinity K+ transporter OsHAK1 (two-hybrid prey) (domain or fragment, UniProt Q6VVA6 683-792)
chain: EAAARPRRSTSSAVHSEEAIQAASSGRTTASSVQLQAGGEPPAAMDVEEEKRLIDREVGRGVVYLMGEANVSAGPNSSILKRIAVNYIYTFLRKNLTEGHRALAIPNDQL
Take B1: the binding entry was “no binding” in [2]; “binds” in assay [3]; “no binding” in assay [4]; “binds” in assay [5]; “no binding” in assay [6]; “binds” in assay [7]. Further, the binding entry in [8] was “no binding”; in [9] it was “binds”.
